# In the supplement of paper PMC8426693:
# The list shows a part of the results.
# Tested on: SARS-CoV-2 3'-UTR RNA
# Assay: NMR binding call after quantification (hit when 2 of 3 NMR criteria are met) (binary (1 = binding, 0 = not binding)); higher = binding
# Conditions: RNA concentration 10 µM; fragment concentration 200 µM; 293 K
row,Structure (SMILES),NMR binding call
1,O=C(Cc1ccc(F)cc1)NC1CCCCC1,0
2,CC1CCNC(C(N)=O)C1 (configuration not stated),0
3,Cc1nc(CC(=O)N2CCOCC2)cs1,0
4,CC(=O)Nc1cccc2nonc12,0
5,Cc1[nH]cnc1CN1CCc2ccccc2C1,0
6,NC(=O)c1ccc(NC(=O)c2ccccc2)cc1,0
7,Cc1cccc(NC(=O)C2CCCN2)n1 (configuration not stated),0
8,CC(=O)NCCN1CCCCCC1,0
9,Cn1cc(Oc2ncncc2Cl)cn1,0
10,COc1ccc(Cl)cc1C(=O)NCC(C)C,0
11,OCc1ccc(-n2cnc3ccccc32)cc1,1
12,Clc1cccc(CN2CCOCC2)c1,0
13,CC(C(N)=O)N1CCN(S(C)(=O)=O)CC1 (configuration not stated),0
14,NC(=S)Nc1ccccc1OC(F)(F)F,0
15,CCOC(=O)c1sc(N(C)C(C)=O)nc1C,0
16,CC(C)(O)CN1CCC(N)C1 (configuration not stated),0
17,c1cc(NCC2CCCO2)ccn1 (configuration not stated),0
18,Cc1cc(C(=O)NCC2CCCO2)ns1 (configuration not stated),0
19,CC(Oc1ccc(C#N)cc1)C(N)=O (configuration not stated),0
20,Cc1cnc(NC(=O)CCC2CCCC2)s1,0
21,CN1CCC(Oc2cccc(F)c2)C1=O (configuration not stated),0
22,Cc1cccc(C(=O)N(C)C)c1C,0
23,CNC1(C(N)=O)CCCC1,0
24,Cc1ccc(CNC(=O)Cc2cccs2)cc1,0
25,CN1CCN(C(=O)C2CCCO2)CC1 (configuration not stated),0
26,Cc1nc(C(=O)N2CCCC2)c(C)s1,0
27,CC(C)N(C)S(=O)(=O)N1CCNC(=O)C1,0

# Random excerpt: 2 records from the list
row,Structure (SMILES),NMR binding call
24,Cc1ccc(CNC(=O)Cc2cccs2)cc1,0
8,CC(=O)NCCN1CCCCCC1,0
